# No constants are given. Whether binding was seen depends on the method and setting. In cells and extracts the contact can be indirect. Here binding means that the protein was enriched with, or labelled near, the bait; the list need not be complete.
# Amino acid sequences for entries named in this document (tags omitted).
# UniProt Q9UKV0: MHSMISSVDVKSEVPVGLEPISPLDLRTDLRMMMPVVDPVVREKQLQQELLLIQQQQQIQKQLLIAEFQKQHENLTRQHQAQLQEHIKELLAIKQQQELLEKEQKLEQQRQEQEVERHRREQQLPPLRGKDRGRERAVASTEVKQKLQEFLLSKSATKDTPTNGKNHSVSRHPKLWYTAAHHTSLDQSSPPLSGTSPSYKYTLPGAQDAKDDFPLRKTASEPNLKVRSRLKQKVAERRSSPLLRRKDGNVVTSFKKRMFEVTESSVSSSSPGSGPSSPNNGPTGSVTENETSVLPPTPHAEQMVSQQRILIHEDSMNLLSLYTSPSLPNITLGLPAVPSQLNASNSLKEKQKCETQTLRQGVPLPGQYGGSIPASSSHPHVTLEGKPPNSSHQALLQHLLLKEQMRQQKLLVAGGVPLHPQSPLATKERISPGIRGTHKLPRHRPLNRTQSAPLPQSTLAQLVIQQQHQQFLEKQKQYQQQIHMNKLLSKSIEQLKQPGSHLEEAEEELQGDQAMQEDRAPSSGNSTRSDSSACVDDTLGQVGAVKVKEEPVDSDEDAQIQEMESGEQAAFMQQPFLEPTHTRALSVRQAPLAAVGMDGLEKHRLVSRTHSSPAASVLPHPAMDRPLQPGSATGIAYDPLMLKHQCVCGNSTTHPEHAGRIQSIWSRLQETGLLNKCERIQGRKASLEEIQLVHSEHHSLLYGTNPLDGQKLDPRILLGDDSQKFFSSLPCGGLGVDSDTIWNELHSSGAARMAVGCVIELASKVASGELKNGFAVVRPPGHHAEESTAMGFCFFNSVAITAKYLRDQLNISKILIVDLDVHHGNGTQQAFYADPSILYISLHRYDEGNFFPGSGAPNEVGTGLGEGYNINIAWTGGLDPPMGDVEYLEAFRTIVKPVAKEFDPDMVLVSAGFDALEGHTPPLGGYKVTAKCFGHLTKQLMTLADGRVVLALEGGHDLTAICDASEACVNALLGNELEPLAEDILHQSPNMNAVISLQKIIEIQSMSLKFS
# UniProt P42224: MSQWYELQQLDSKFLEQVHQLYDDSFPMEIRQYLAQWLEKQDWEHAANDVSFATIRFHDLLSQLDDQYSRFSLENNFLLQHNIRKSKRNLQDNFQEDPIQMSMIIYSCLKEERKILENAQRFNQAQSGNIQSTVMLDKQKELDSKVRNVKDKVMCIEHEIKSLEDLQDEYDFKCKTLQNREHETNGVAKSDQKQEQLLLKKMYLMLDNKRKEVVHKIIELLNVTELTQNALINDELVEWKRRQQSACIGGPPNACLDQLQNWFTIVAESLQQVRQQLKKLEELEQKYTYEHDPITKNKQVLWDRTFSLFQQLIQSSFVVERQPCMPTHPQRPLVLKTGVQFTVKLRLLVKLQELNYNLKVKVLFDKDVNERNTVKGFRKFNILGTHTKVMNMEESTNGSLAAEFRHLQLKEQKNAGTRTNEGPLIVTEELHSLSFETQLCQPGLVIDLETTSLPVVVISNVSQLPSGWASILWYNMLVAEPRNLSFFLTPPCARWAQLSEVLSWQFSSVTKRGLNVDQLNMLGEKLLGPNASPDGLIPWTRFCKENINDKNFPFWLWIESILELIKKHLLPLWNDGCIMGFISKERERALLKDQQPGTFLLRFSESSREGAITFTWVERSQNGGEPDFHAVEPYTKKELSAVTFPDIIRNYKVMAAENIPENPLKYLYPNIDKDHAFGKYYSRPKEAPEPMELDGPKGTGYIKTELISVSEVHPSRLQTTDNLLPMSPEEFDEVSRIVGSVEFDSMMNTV
# Target: T1, lysophosphatidylcholine acyltransferase 2 (human (endogenous in BEAS-2B)) (UniProt Q7L5N7)
# T1 sequence: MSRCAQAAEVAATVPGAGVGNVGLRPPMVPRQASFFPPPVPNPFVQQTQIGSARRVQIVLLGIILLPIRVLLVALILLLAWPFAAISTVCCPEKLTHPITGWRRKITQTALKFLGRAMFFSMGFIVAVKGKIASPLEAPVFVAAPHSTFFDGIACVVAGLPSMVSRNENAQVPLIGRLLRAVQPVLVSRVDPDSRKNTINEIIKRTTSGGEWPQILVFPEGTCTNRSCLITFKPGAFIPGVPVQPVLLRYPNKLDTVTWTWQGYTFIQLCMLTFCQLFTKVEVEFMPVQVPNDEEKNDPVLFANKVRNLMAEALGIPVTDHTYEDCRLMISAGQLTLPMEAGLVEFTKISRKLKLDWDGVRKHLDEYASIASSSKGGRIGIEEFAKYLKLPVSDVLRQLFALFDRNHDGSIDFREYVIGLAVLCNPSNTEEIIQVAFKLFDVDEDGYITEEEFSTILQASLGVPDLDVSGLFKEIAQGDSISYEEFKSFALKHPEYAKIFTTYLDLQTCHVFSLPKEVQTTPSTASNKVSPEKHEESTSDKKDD
# Assay: affinity purification with mass spectrometry; IP-MS/MS: co-IP from BEAS-2B cells with anti-LPCAT2 antibody or IgG as negative control; captured proteins separated by SDS-PAGE, excised from the gel and analysed by mass spectrometry
row,binding,Substance
1,binds,histone deacetylase 9 (from UniProt Q9UKV0 1-1011) (enzyme)
2,binds,transcription activator 1 (STAT1) (from UniProt P42224 1-750)

# — publication PMC13035903
